This test deals with T1, 6×His Tag S.a-FnBpA protein (fibronectin binding protein FnBpA of Staphylococcus aureus) (S. aureus) (UniProt P14738).
T1 sequence: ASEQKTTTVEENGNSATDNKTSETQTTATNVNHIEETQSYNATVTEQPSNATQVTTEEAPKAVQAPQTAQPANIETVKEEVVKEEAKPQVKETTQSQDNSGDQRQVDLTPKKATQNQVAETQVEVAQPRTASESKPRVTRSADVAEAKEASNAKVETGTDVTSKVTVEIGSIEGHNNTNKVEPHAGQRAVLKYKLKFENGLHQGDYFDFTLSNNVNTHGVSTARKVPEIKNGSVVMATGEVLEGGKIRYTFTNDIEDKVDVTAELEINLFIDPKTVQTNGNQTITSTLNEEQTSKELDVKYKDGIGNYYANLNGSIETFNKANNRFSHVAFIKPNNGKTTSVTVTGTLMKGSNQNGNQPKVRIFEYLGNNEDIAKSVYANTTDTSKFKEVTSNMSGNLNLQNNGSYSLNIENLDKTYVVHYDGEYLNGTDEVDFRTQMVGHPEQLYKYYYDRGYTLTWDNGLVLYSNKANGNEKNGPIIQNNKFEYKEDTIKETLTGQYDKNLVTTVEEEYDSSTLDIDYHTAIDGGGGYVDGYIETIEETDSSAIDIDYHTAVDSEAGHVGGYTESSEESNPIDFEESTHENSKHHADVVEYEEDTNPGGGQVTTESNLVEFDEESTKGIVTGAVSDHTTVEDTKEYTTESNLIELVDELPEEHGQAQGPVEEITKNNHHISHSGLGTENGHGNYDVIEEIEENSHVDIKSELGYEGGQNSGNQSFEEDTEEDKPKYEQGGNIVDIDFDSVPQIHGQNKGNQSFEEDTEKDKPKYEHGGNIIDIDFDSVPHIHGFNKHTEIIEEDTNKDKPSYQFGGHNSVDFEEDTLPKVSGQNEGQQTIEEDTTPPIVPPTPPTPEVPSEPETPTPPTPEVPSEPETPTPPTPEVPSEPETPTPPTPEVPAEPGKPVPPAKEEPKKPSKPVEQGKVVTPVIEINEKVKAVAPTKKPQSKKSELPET
Put plainly: pull-down; FnBps as bait, integrin α5 and β1 chains detected; with/without Fn protein; no further conditions told.

Chains of the proteins cited; added tags and fusions are not shown. Lines headed by an entry give the natural chain unless they say otherwise; changes in a name come on top.
UniProt P08648: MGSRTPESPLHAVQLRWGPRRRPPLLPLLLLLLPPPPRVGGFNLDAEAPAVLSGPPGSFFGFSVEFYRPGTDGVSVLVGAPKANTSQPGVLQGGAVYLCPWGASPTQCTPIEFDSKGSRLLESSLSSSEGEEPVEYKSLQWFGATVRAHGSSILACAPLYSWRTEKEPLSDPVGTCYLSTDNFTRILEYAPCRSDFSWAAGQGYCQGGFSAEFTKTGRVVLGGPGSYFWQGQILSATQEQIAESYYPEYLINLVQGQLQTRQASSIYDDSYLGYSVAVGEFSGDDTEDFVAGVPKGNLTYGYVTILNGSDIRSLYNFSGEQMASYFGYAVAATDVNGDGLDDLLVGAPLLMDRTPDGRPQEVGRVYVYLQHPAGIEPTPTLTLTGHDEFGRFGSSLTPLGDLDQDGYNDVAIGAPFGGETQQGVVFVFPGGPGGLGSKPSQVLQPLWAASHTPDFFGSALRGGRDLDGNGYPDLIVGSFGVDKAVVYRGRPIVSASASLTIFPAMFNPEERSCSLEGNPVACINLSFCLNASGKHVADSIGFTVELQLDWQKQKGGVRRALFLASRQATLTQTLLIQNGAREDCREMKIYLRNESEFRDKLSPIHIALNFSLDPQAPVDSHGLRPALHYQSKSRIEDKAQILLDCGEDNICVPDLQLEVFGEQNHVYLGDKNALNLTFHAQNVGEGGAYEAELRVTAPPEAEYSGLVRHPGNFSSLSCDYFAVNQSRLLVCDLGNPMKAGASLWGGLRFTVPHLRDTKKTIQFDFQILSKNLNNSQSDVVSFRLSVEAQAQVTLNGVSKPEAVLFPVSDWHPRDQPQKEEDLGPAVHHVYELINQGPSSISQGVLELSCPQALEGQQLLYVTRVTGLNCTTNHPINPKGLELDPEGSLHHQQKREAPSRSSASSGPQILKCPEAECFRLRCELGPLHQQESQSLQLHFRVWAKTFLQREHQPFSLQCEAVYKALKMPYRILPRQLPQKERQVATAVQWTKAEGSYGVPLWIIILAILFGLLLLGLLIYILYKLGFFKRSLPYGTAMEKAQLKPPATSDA

Results are given in words; binding and its absence hold for the method and conditions named. Binding seen in cells or lysates may run through a third protein. Some results given as binding are weak or reduced against the parent protein; the word gives no strength. Sequences can lack the tags named with a protein.

For “integrin α5β1 (from UniProt P08648 42-1049; P05556 21-798) (complex)”, the binding entry is “binds”.

The values are drawn from PMC10803403.
